Test results as given in PMC9224296.
Substitutions are numbered along the chain they refer to. These are yes or no findings as the source states them, for the method shown. Binding seen in cells or lysates may run through a third protein. Some results given as binding are weak or reduced against the parent protein; the word gives no strength. For some assays here: Tags and fused reporters may be left off the sequences shown.

Chains of the proteins cited; added tags and fusions are not shown.
UniProt Q9WUM4: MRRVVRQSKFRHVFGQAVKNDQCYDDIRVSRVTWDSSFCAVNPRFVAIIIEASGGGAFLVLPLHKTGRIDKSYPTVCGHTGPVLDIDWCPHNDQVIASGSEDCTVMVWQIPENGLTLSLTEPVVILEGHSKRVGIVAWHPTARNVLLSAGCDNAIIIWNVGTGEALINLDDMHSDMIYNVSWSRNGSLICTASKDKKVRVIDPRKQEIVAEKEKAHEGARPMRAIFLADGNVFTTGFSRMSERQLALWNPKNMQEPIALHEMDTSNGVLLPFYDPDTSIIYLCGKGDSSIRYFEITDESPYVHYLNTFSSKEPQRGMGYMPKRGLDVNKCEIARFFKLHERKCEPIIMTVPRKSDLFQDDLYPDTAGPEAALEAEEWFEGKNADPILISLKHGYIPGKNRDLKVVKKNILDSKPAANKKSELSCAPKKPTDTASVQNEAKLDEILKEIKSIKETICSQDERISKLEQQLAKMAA

Legend:
[1] = molecular target: T1, endogenous Rab44 (mouse (endogenous in RAW-D)) (UniProt Q8CB87); assay: proximity ligation; Duolink PLA in fixed, permeabilised RAW-D cells with rabbit anti-Rab44 and mouse anti-Coronin1C; RCA products counted per cell by confocal microscopy
T1 sequence: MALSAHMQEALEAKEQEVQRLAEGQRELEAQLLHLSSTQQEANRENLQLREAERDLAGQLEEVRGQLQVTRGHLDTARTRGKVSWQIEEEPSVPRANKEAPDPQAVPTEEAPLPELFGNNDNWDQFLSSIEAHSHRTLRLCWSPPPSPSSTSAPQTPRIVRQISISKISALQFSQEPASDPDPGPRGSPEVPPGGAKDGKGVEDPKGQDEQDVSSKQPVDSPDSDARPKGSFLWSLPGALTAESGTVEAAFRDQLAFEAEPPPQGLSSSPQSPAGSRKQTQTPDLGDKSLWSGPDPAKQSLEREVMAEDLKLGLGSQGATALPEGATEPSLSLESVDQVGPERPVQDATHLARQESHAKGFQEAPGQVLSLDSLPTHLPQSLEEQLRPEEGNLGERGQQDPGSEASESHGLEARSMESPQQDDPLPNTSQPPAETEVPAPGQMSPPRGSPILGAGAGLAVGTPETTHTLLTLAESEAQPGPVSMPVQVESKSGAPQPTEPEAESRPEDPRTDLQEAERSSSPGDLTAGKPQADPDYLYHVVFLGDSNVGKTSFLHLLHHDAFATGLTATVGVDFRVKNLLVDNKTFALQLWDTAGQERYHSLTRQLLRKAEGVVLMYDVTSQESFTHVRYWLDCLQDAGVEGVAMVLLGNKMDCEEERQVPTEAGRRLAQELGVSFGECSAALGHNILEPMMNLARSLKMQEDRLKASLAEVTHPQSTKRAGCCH

GFP-Rab44 (WT) (mouse) [2] = molecular target: T2, GFP-Rab44 (WT) (mouse) (UniProt Q8CB87); assay: as above
T2 sequence: T1 sequence

[3] = molecular target: T3, GFP-Rab44 dominant-negative (DN) mutant (T551N) (mouse) (UniProt Q8CB87); assay: as above
T3 sequence: T1 sequence with T551N

GFP-Rab44 (WT) (mouse) [4] = molecular target: T2, GFP-Rab44 (WT) (mouse); assay: co-IP; IP with GFP antibody from lysates of RAW-D cells expressing GFP only, GFP-Rab44 WT, CA or DN; Western blot with anti-Coronin1C
[5] = molecular target: T3, GFP-Rab44 dominant-negative (DN) mutant (T551N) (mouse); assay: as above

binding [1]: binds | binding (GFP-Rab44 (WT) (mouse) [2]): binds | binding [3]: binds | binding (GFP-Rab44 (WT) (mouse) [4]): binds | binding [5]: binds
Substance: Coronin1C (from UniProt Q9WUM4 1-474)
